Experimental data: PubChem BioAssay AID1508588 (Peter MacCallum Cancer Centre, 2020)

Test: 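Which gene losses make BRAF-mutant melanoma cells more responsive to vemurafenib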 (primary screen)
Cell system: human WM266.4 melanoma cells (BRAF V600 mutant)
Knock-down reagent: siRNA pool against human genes, 40 nM
Timing: 96 h from transfection to read-out
Challenge: vemurafenib 300 nM (about IC25), added 48 h after transfection, for 48 h; comparison arm got DMSO vehicle only
Measurement: 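Ratios to non-targeting siRNA for cell gain, counted as DAPI nuclei after minus before drug and averaged over two replicates, and for absorbance-read medium lactate per cell; both binned into fold-change classes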
Scale: cell gain with vemurafenib: higher = more cell gain than with non-targeting siRNA; lactate per cell with vemurafenib: higher = more lactate made per cell
Rule for the call: 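a knock-down counts as enhancing when its fold-change classes with vehicle and with vemurafenib, taken together, show a stronger drug effect on cell gain or lactate per cell; exact class pairs not stated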
Meaning of the calls: active = enhances vemurafenib effect; inactive = no enhancement seen
The deposit covers about 18,000 reagents; this is a part drawn at random. 790 of them (4.4%) count as active. 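Calls rest on a combination of fold-change classes in drug and vehicle arms, not all shown here.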

no.	target	cell gain with vemurafenib	lactate per cell with vemurafenib	outcome
1	LGALS12	0.89	0.62	inactive
2	FAAH	0.75	0.44	active
3	TFPI2	0.41	1.36	inactive
4	SLC6A17	1.04	0.67	inactive
5	MSMB	0.96	0.96	inactive
6	NDN	0.89	0.86	inactive
7	GAGE5	0.52	1.44	inactive
8	SLITRK2	0.93	0.36	inactive
9	LOX	1.29	0.52	inactive
10	UGT2B28	0.59	0.78	inactive
11	GSTM3	0.35	1.71	inactive
12	SMARCD1	0.72	1.15	inactive
13	KRTAP19-7	0.39	1.1	inactive
14	PLSCR1	0.67	1.18	inactive
15	RGL4	0.49	1.56	inactive
16	CLDN7	0.45	1.37	inactive
17	RPGRIP1L	0.49	0.98	inactive
18	DPPA5	0.42	1.56	inactive
19	AIG1	0.71	0.73	inactive
20	PKMYT1	0.41	1.62	inactive
21	VSIG10	1.13	0.38	inactive
22	U2SURP	0.22	0.4	active
23	TCF19	0.63	0.92	inactive
24	MAPK10	0.35	0.44	active
25	ANKFY1	0.35	0.96	inactive
26	TAS2R60	1.33	0.57	inactive
27	MICU3	0.95	0.44	inactive
28	STN1	0.66	1.73	inactive
29	SPTA1	0.31	0.73	inactive
30	H3C4	0.32	2.25	inactive
31	CENATAC	0.06	2.68	inactive
32	ERGIC2	0.5	1.77	inactive
33	NEU1	0.34	1.47	inactive
34	OR51V1	0.39	1.29	inactive
35	MCL1	0.94	0.34	inactive
36	RAPSN	0.98	0.91	inactive
37	CEP41	0.13	1.38	inactive
38	NFRKB	0.59	0.72	inactive
39	BEND7	0.9	0.4	inactive
40	ZNF35	0.56	0.6	inactive
41	ZNF17	0.97	1.04	inactive
42	TSR3	0.47	1.02	inactive
43	FGFBP1	0.26	2.17	inactive
44	RHOB	0.4	1.15	inactive
45	SKIDA1	0.8	0.53	inactive
46	DEDD2	0.88	1.03	inactive
47	ANP32CP	0.65	0.32	inactive
48	SLC39A13	0.51	0.74	inactive
49	C1orf226	0.66	0.86	inactive
50	NPPB	0.73	0.7	inactive
51	KIF3B	0.7	0.88	inactive
52	MMAB	0.62	0.56	inactive
53	TRIM49C	0.97	0.78	inactive
54	SNX2	0.89	0.32	inactive
55	FUNDC1	1.09	0.76	inactive
56	TBC1D2	0.85	1.09	inactive
57	CCDC60	0.4	0.1	active
58	ART1	0.66	0.8	inactive
59	CGB8	0.67	0.72	inactive
60	GPR85	0.29	1.02	inactive
61	IGFALS	0.25	0.36	active
62	HCRTR2	0.47	1.04	inactive
63	TBC1D14	0.06	1.54	inactive
64	CAT	0.69	1.1	inactive
65	MRPL32	0.7	1.56	inactive
66	PCSK1	0.54	1.05	inactive
67	DUSP23	0.48	0.84	inactive
68	MAP7D1	0.46	0.64	inactive
69	SSB	0.41	0.6	inactive
70	L3MBTL1	0.94	1.17	inactive
71	WFDC11	0.52	0.9	inactive
72	RHPN2	0.83	0.96	inactive
73	SRSF5	0.77	1.32	inactive
74	ZNF544	0.6	0.88	inactive
75	KRT81	-0.02	1.17	inactive
76	HLF	0.19	0.67	active
77	RGS22	0.73	0.33	inactive
78	NTN5	0.48	0.82	inactive
79	UBE2NL	0.5	0.76	inactive
80	FNDC1	0.24	1.44	inactive
81	CIMAP1C	0.49	1.33	inactive
82	RAB11FIP3	0.46	0.58	inactive
83	FOXR1	0.59	0.98	inactive
84	NDUFA10	0.83	0.97	inactive

Reprinted from the listing (13 entries):
no.	target	cell gain with vemurafenib	lactate per cell with vemurafenib	outcome
17	RPGRIP1L	0.49	0.98	inactive
18	DPPA5	0.42	1.56	inactive
19	AIG1	0.71	0.73	inactive
20	PKMYT1	0.41	1.62	inactive
21	VSIG10	1.13	0.38	inactive
22	U2SURP	0.22	0.4	active
23	TCF19	0.63	0.92	inactive
24	MAPK10	0.35	0.44	active
25	ANKFY1	0.35	0.96	inactive
26	TAS2R60	1.33	0.57	inactive
27	MICU3	0.95	0.44	inactive
28	STN1	0.66	1.73	inactive
29	SPTA1	0.31	0.73	inactive
